Measured values from publication PMC7818742.
Results are given in words; binding and its absence hold for the method and conditions named. Binding seen in cells or lysates may run through a third protein. Some entries that bind do so weakly or less than the wild type. For some assays here: Sequences can lack the tags named with a protein.

The chains behind the UniProt entries cited, without tags or fusion partners.
UniProt O82811: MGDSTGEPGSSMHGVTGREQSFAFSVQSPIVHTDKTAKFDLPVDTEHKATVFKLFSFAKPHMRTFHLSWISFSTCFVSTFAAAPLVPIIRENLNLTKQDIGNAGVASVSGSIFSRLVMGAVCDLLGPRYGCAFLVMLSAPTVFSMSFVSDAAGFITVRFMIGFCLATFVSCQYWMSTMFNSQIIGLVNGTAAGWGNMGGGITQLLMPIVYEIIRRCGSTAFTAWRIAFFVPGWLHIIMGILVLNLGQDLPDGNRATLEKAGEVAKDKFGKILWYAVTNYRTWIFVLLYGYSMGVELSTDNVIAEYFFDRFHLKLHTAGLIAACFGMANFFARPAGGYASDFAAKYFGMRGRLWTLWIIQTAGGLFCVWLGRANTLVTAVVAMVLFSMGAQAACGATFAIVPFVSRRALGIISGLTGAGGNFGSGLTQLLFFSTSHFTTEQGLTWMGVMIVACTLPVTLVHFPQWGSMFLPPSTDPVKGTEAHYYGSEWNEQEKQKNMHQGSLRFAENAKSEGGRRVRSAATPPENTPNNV

Legend:
[1] = biological target: T1, AtNRT3.1-Nluc (Arabidopsis thaliana (from the prefix At and the locus AT5G50200)) (UniProt Q9FGS5); assay: split reporter; split-luciferase assay with Nluc and Cluc fusions co-expressed in poplar leaves by syringe agroinfiltration; 2 mM luciferin infiltrated at 5 dpi, luminescence captured by a cooled CCD
T1 sequence: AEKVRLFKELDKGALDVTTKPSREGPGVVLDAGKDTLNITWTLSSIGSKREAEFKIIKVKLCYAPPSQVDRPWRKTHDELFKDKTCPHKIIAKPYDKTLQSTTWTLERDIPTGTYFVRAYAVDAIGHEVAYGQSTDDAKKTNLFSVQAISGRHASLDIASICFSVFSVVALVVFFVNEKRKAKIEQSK

[2] = biological target: AtWRKY40 (Arabidopsis thaliana (from the prefix At and the locus AT1G80840)) (UniProt Q9SAH7); assay: split reporter; BiFC with YFP^N and YFP^C fusions co-expressed in poplar leaf cells by syringe agroinfiltration; YFP fluorescence observed at 5 dpi, nucleus stained with DAPI

AtNRT2.1-Cluc (from UniProt O82811 1-530)
binding [1]: binds

B1: AtWRKY40 (protein, UniProt Q9SAH7 1-302)
chain: MDQYSSSLVDTSLDLTIGVTRMRVEEDPPTSALVEELNRVSAENKKLSEMLTLMCDNYNVLRKQLMEYVNKSNITERDQISPPKKRKSPAREDAFSCAVIGGVSESSSTDQDEYLCKKQREETVVKEKVSRVYYKTEASDTTLVVKDGYQWRKYGQKVTRDNPSPRAYFKCACAPSCSVKKKVQRSVEDQSVLVATYEGEHNHPMPSQIDSNNGLNRHISHGGSASTPVAANRRSSLTVPVTTVDMIESKKVTSPTSRIDFPQVQKLLVEQMASSLTKDPNFTAALAAAVTGKLYQQNHTEK
binding [2]: binds
